According to patent US20100143940A1, “(3R)-HYDROXYACYL-ACP DEHYDRATASE ENZYMES USED IN THE BIOSYNTHESIS OF MYCOLIC ACIDS AND USE OF SAME FOR SCREENING ANTIBIOTICS” (priority 2007, published 2010):
Results are given in words; binding and its absence hold for the method and conditions named. Some results given as binding are weak or reduced against the parent protein; the word gives no strength. Sequences can lack the tags named with a protein.

Amino acid sequences for entries named in this document (tags omitted). A change or cut given only in a name is not applied to a line headed by its entry.
UniProt P9WFK0: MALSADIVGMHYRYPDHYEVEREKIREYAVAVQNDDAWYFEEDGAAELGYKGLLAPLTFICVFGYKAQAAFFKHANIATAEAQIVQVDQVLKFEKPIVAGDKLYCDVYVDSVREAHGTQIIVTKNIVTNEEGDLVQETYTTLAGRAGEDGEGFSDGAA

What was measured:
[1] = target: T1, Rv0636 protein of M. tuberculosis H37Rv (no tag, coexpressed with H-Rv0635) (M. tuberculosis H37Rv); experiment: summary of the coelution and light scattering results
T1 sequence: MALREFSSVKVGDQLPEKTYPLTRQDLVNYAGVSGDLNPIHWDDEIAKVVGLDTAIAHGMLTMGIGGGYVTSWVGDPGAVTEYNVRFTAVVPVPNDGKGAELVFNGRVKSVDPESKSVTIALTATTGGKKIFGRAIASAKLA

[2] = target: T1, Rv0636 protein of M. tuberculosis H37Rv (no tag, coexpressed with H-Rv0635) (M. tuberculosis H37Rv); experiment: dynamic light scattering of the Rv0635-Rv0636 complex, 20 mg/ml
[3] = target: T1, Rv0636 protein of M. tuberculosis H37Rv (no tag, coexpressed with H-Rv0635) (M. tuberculosis H37Rv); experiment: coelution on Ni Sepharose and Superdex 75 exclusion column, SDS-PAGE

Measured: binding

Rv0635 protein of M. tuberculosis H37Rv fused with the N-terminal polyhistidine tag (from UniProt P9WFK0 2-158)
binds: all assays above
